PubChem BioAssay AID330 (DTP/NCI, 2004)
The list does not hold the whole screen: it is rich in T/C values a quarter to a half above the control, in often repeated tests (any T/C) and in doses without a T/C. Further doses and runs are listed elsewhere. T/C gives the treated animals as a percentage of the vehicle group. Some entries give survivors of the animals treated and no T/C: the source files T/C as zero there, which appears to mark a toxic dose or a test without result, not a measured value. Some survivor counts are full or nearly so, which does not show that the dose was tolerated: the source hardly ever lists a survival T/C far under the control, and the zero likely stands for such cases as well. Survivors were counted at the toxicity check, usually on the fifth day, unless a day is given; later deaths do not show. Schedules are NCI's codes, taken here to give the interval after Q, in days (D) or hours (H), and the number of doses after X. Some doses were run more than once; their values stand side by side, smallest first. For survival time, the PubChem record calls one and a half times the control and up active, and a quarter to a half above the control has no call in these data; cut-offs in other NCI protocols can differ. Some T/C values are followed by the survivors on the day toxicity was checked, most often the fifth; where none is given, no animal had died by that day.

Test system: P388 leukemia ip, CD2F1 mice, survival T/C
Test: NCI In Vivo Anticancer Drug Screen. Data for tumor model P388 Leukemia (intraperitoneal) in CD2F1 (CDF1) mice
Settings: T/C endpoint: median survival time, higher T/C = longer survival
[1] = dose: 8.0 mg/kg/injection, schedule: Q04DX003 (ip), vehicle: water
[2] = dose: 32.0 mg/kg/injection, schedule: Q04DX003 (ip), vehicle: saline

SMILES: COc1cccc2c1C(=O)c1c(O)c3c(c(O)c1C2=O)CC(O)(C(=O)CO)CC3OC1CC(N)C(O)C(C)O1 (stereo unspecified)
- T/C (dose: 0.08 mg/kg/injection, schedule: Q04DX003 (ip), vehicle: saline): 128 % of control
- T/C (dose: 0.09 mg/kg/injection, schedule: Q01DX009 (ip), vehicle: water): 127 % of control
- T/C (dose: 0.12 mg/kg/injection, schedule: Q04DX003 (ip), vehicle: saline): 126 % of control
- T/C (dose: 0.18 mg/kg/injection, schedule: Q04DX003 (ip), vehicle: other): 130 % of control
- T/C (dose: 0.18 mg/kg/injection, schedule: Q04DX003 (ip), vehicle: saline): 131 % of control
- T/C (dose: 0.19 mg/kg/injection, schedule: Q01DX009 (ip), vehicle: water): 136 % of control
- T/C (dose: 0.25 mg/kg/injection, schedule: Q04DX003 (ip), vehicle: distilled water + Tween-80): 126 % of control
- T/C (dose: 0.27 mg/kg/injection, schedule: Q04DX003 (ip), vehicle: other): 131 % of control
- T/C (dose: 0.27 mg/kg/injection, schedule: Q04DX003 (ip), vehicle: saline): 136 % of control
- T/C (dose: 0.4 mg/kg/injection, schedule: Q04DX003 (ip), vehicle: other): 141 % of control
- T/C (dose: 0.4 mg/kg/injection, schedule: Q04DX003 (ip), vehicle: saline): 137 % of control
- T/C (dose: 0.5 mg/kg/injection, schedule: Q04DX003 (ip), vehicle: distilled water + Tween-80): 126 % of control
- T/C (dose: 0.5 mg/kg/injection, schedule: Q04DX003 (ip), vehicle: water, evaluated on day 40): 127 % of control
- T/C (dose: 0.5 mg/kg/injection, schedule: Q04DX003 (ip), vehicle: water, evaluated on day 50): 135 % of control
- T/C (dose: 0.6 mg/kg/injection, schedule: Q04DX003 (ip), vehicle: other): 144 % of control
- T/C (dose: 0.78 mg/kg/injection, schedule: Q04DX003 (ip), vehicle: saline): 148 % of control
- T/C (dose: 0.9 mg/kg/injection, schedule: Q04DX003 (ip), vehicle: other): 145 % of control
- T/C (dose: 0.9 mg/kg/injection, schedule: Q04DX003 (ip), vehicle: saline): 147 % of control
- T/C (dose: 1.0 mg/kg/injection, schedule: Q04DX003 (ip), vehicle: distilled water + Tween-80): 144 % of control
- T/C (dose: 1.0 mg/kg/injection, schedule: Q04DX003 (ip), vehicle: water, evaluated on day 40): 127 % of control
- T/C (dose: 1.0 mg/kg/injection, schedule: Q04DX003 (ip), vehicle: water, evaluated on day 45): 131 % of control [5 of 6 alive on day 9]
- T/C (dose: 1.0 mg/kg/injection, schedule: Q04DX003 (ip), vehicle: water, evaluated on day 50): 131 % of control
- T/C (dose: 2.0 mg/kg/injection, schedule: Q04DX003 (ip), vehicle: distilled water + Tween-80): 135 % of control
- T/C (dose: 2.0 mg/kg/injection, schedule: Q04DX003 (ip), vehicle: saline): 135 % of control
- T/C (dose: 2.0 mg/kg/injection, schedule: Q04DX003 (ip), vehicle: water, evaluated on day 40): 128 and 145 % of control
- T/C (dose: 2.0 mg/kg/injection, schedule: Q04DX003 (ip), vehicle: water, evaluated on day 45): 141 % of control
- T/C (dose: 2.0 mg/kg/injection, schedule: Q04DX003 (ip), vehicle: water, evaluated on day 50): 126 % of control
- T/C (dose: 2.9 mg/kg/injection, schedule: Q01DX009 (ip), vehicle: saline): 141 % of control
- T/C (dose: 3.75 mg/kg/injection, schedule: Q04DX003 (ip), vehicle: clinical formulation): 137 % of control
- T/C (dose: 4.0 mg/kg/injection, schedule: Q04DX003 (ip), vehicle: saline): 126, 127 [5 of 6 alive], 147 % of control
- T/C (dose: 4.0 mg/kg/injection, schedule: Q04DX003 (ip), vehicle: water, evaluated on day 45): 127 % of control
- T/C (dose: 4.0 mg/kg/injection, schedule: Q04DX003 (ip), vehicle: water, evaluated on day 50): 128 % of control
- T/C (dose: 4.5 mg/kg/injection, schedule: Q04DX003 (ip), vehicle: water): 125 and 128 % of control
- T/C (dose: 5.5 mg/kg/injection, schedule: Q04DX003 (ip), vehicle: water): 138 % of control
- T/C (dose: 5.8 mg/kg/injection, schedule: Q01DX009 (ip), vehicle: saline): 148 % of control
- survivor count (dose: 6.0 mg/kg/injection, schedule: Q01DX009 (ip), vehicle: water): 8 of 8
- T/C (dose: 6.0 mg/kg/injection, schedule: Q04DX003 (ip), vehicle: water): 125 and 130 % of control
- T/C (dose: 8.0 mg/kg/injection, schedule: Q04DX003 (ip), vehicle: other): 127 % of control
- T/C (dose: 8.0 mg/kg/injection, schedule: Q04DX003 (ip), vehicle: saline): 130 and 137 % of control
- T/C [1]: 132 % of control
- survivor count [1]: 2 of 6 on day 9
- T/C (dose: 9.0 mg/kg/injection, schedule: Q04DX003 (ip), vehicle: water): 125 % of control
- T/C (dose: 9.4 mg/kg/injection, schedule: Q04DX003 (ip), vehicle: water): 144 % of control
- T/C (dose: 11.0 mg/kg/injection, schedule: Q04DX003 (ip), vehicle: water): 140 % of control
- T/C (dose: 11.3 mg/kg/injection, schedule: Q04DX003 (ip), vehicle: water): 126 % of control
- survivor count (dose: 12.0 mg/kg/injection, schedule: Q01DX009 (ip), vehicle: water): 7 of 8
- T/C (dose: 12.0 mg/kg/injection, schedule: Q04DX003 (ip), vehicle: water): 131 % of control
- T/C (dose: 12.5 mg/kg/injection, schedule: Q04DX003 (ip), vehicle: other): 130 % of control
- T/C (dose: 12.5 mg/kg/injection, schedule: Q04DX003 (ip), vehicle: saline): 136 % of control
- T/C (dose: 16.0 mg/kg/injection, schedule: Q04DX003 (ip), vehicle: other): 132 % of control
- T/C (dose: 16.0 mg/kg/injection, schedule: Q04DX003 (ip), vehicle: saline): 131 % of control
- survivor count (dose: 16.0 mg/kg/injection, schedule: Q04DX003 (ip), vehicle: water): 3 of 6 on day 9, 5 of 6 on day 9, 6 of 6 on day 9
- T/C (dose: 18.0 mg/kg/injection, schedule: Q04DX003 (ip), vehicle: water): 135 % of control
- T/C (dose: 18.75 mg/kg/injection, schedule: Q04DX003 (ip), vehicle: water): 142 % of control
- T/C (dose: 20.0 mg/kg/injection, schedule: Q04DX003 (ip), vehicle: water): 129 % of control
- T/C (dose: 24.0 mg/kg/injection, schedule: Q04DX003 (ip), vehicle: water): 135 and 138 % of control
- T/C (dose: 25.0 mg/kg/injection, schedule: Q04DX003 (ip), vehicle: other): 128 % of control
- T/C (dose: 30.0 mg/kg/injection, schedule: Q04DX003 (ip), vehicle: clinical formulation): 128 % of control
- T/C (dose: 32.0 mg/kg/injection, schedule: Q04DX003 (ip), vehicle: other): 141 % of control
- T/C [2]: 146 % of control
- survivor count [2]: 8 of 8
- T/C (dose: 37.5 mg/kg/injection, schedule: Q04DX003 (ip), vehicle: water): 125 % of control
- T/C (dose: 40.0 mg/kg/injection, schedule: Q04DX003 (ip), vehicle: water): 130 % of control
- T/C (dose: 44.0 mg/kg/injection, schedule: Q04DX003 (ip), vehicle: water): 140 % of control
- T/C (dose: 45.0 mg/kg/injection, schedule: Q04DX003 (ip), vehicle: water): 135 % of control
- survivor count (dose: 48.0 mg/kg/injection, schedule: Q04DX003 (ip), vehicle: saline): 8 of 8
- T/C (dose: 64.0 mg/kg/injection, schedule: Q04DX003 (ip), vehicle: other): 138 % of control
- T/C (dose: 64.0 mg/kg/injection, schedule: Q04DX003 (ip), vehicle: water): 134 % of control
- survivor count (dose: 72.0 mg/kg/injection, schedule: Q04DX003 (ip), vehicle: saline): 8 of 8
- T/C (dose: 88.0 mg/kg/injection, schedule: Q04DX003 (ip), vehicle: water): 136 % of control
- survivor count (dose: 177.0 mg/kg/injection, schedule: Q04DX003 (ip), vehicle: other): 7 of 8
- T/C (dose: 180.0 mg/kg/injection, schedule: Q04DX003 (ip), vehicle: water): 135 % of control
- T/C (dose: 200.0 mg/kg/injection, schedule: Q04DX003 (ip), vehicle: water): 149 % of control
- T/C (dose: 288.0 mg/kg/injection, schedule: Q04DX003 (ip), vehicle: water): 139 % of control
- survivor count (dose: 512.0 mg/kg/injection, schedule: Q04DX003 (ip), vehicle: other): 3 of 6 on day 9
- survivor count (dose: 512.0 mg/kg/injection, schedule: Q04DX003 (ip), vehicle: saline): 0 of 6
